Test results as given in patent US20230114866A1 (published 2023).

Assay: peptide synthesis
Conditions: conjugation step

Substance: BCN-LPETGG
- conjugation yield: 72%
